This test concerns the target Piccolo (rat (endogenous in brain)) (UniProt Q9JKS6). Put plainly: co-IP; anti-Piccolo rabbit antibody or rabbit IgG, Protein A agarose; Triton X-100 (1%) solubilised light membrane fraction of immature (postnatal day 2-4) rat brain; 5 mM MES pH 7.0, 150 mM NaCl, 1 mM EDTA; Western blot.

Amino acid sequences for entries named in this document (tags omitted).
UniProt Q9JKS6: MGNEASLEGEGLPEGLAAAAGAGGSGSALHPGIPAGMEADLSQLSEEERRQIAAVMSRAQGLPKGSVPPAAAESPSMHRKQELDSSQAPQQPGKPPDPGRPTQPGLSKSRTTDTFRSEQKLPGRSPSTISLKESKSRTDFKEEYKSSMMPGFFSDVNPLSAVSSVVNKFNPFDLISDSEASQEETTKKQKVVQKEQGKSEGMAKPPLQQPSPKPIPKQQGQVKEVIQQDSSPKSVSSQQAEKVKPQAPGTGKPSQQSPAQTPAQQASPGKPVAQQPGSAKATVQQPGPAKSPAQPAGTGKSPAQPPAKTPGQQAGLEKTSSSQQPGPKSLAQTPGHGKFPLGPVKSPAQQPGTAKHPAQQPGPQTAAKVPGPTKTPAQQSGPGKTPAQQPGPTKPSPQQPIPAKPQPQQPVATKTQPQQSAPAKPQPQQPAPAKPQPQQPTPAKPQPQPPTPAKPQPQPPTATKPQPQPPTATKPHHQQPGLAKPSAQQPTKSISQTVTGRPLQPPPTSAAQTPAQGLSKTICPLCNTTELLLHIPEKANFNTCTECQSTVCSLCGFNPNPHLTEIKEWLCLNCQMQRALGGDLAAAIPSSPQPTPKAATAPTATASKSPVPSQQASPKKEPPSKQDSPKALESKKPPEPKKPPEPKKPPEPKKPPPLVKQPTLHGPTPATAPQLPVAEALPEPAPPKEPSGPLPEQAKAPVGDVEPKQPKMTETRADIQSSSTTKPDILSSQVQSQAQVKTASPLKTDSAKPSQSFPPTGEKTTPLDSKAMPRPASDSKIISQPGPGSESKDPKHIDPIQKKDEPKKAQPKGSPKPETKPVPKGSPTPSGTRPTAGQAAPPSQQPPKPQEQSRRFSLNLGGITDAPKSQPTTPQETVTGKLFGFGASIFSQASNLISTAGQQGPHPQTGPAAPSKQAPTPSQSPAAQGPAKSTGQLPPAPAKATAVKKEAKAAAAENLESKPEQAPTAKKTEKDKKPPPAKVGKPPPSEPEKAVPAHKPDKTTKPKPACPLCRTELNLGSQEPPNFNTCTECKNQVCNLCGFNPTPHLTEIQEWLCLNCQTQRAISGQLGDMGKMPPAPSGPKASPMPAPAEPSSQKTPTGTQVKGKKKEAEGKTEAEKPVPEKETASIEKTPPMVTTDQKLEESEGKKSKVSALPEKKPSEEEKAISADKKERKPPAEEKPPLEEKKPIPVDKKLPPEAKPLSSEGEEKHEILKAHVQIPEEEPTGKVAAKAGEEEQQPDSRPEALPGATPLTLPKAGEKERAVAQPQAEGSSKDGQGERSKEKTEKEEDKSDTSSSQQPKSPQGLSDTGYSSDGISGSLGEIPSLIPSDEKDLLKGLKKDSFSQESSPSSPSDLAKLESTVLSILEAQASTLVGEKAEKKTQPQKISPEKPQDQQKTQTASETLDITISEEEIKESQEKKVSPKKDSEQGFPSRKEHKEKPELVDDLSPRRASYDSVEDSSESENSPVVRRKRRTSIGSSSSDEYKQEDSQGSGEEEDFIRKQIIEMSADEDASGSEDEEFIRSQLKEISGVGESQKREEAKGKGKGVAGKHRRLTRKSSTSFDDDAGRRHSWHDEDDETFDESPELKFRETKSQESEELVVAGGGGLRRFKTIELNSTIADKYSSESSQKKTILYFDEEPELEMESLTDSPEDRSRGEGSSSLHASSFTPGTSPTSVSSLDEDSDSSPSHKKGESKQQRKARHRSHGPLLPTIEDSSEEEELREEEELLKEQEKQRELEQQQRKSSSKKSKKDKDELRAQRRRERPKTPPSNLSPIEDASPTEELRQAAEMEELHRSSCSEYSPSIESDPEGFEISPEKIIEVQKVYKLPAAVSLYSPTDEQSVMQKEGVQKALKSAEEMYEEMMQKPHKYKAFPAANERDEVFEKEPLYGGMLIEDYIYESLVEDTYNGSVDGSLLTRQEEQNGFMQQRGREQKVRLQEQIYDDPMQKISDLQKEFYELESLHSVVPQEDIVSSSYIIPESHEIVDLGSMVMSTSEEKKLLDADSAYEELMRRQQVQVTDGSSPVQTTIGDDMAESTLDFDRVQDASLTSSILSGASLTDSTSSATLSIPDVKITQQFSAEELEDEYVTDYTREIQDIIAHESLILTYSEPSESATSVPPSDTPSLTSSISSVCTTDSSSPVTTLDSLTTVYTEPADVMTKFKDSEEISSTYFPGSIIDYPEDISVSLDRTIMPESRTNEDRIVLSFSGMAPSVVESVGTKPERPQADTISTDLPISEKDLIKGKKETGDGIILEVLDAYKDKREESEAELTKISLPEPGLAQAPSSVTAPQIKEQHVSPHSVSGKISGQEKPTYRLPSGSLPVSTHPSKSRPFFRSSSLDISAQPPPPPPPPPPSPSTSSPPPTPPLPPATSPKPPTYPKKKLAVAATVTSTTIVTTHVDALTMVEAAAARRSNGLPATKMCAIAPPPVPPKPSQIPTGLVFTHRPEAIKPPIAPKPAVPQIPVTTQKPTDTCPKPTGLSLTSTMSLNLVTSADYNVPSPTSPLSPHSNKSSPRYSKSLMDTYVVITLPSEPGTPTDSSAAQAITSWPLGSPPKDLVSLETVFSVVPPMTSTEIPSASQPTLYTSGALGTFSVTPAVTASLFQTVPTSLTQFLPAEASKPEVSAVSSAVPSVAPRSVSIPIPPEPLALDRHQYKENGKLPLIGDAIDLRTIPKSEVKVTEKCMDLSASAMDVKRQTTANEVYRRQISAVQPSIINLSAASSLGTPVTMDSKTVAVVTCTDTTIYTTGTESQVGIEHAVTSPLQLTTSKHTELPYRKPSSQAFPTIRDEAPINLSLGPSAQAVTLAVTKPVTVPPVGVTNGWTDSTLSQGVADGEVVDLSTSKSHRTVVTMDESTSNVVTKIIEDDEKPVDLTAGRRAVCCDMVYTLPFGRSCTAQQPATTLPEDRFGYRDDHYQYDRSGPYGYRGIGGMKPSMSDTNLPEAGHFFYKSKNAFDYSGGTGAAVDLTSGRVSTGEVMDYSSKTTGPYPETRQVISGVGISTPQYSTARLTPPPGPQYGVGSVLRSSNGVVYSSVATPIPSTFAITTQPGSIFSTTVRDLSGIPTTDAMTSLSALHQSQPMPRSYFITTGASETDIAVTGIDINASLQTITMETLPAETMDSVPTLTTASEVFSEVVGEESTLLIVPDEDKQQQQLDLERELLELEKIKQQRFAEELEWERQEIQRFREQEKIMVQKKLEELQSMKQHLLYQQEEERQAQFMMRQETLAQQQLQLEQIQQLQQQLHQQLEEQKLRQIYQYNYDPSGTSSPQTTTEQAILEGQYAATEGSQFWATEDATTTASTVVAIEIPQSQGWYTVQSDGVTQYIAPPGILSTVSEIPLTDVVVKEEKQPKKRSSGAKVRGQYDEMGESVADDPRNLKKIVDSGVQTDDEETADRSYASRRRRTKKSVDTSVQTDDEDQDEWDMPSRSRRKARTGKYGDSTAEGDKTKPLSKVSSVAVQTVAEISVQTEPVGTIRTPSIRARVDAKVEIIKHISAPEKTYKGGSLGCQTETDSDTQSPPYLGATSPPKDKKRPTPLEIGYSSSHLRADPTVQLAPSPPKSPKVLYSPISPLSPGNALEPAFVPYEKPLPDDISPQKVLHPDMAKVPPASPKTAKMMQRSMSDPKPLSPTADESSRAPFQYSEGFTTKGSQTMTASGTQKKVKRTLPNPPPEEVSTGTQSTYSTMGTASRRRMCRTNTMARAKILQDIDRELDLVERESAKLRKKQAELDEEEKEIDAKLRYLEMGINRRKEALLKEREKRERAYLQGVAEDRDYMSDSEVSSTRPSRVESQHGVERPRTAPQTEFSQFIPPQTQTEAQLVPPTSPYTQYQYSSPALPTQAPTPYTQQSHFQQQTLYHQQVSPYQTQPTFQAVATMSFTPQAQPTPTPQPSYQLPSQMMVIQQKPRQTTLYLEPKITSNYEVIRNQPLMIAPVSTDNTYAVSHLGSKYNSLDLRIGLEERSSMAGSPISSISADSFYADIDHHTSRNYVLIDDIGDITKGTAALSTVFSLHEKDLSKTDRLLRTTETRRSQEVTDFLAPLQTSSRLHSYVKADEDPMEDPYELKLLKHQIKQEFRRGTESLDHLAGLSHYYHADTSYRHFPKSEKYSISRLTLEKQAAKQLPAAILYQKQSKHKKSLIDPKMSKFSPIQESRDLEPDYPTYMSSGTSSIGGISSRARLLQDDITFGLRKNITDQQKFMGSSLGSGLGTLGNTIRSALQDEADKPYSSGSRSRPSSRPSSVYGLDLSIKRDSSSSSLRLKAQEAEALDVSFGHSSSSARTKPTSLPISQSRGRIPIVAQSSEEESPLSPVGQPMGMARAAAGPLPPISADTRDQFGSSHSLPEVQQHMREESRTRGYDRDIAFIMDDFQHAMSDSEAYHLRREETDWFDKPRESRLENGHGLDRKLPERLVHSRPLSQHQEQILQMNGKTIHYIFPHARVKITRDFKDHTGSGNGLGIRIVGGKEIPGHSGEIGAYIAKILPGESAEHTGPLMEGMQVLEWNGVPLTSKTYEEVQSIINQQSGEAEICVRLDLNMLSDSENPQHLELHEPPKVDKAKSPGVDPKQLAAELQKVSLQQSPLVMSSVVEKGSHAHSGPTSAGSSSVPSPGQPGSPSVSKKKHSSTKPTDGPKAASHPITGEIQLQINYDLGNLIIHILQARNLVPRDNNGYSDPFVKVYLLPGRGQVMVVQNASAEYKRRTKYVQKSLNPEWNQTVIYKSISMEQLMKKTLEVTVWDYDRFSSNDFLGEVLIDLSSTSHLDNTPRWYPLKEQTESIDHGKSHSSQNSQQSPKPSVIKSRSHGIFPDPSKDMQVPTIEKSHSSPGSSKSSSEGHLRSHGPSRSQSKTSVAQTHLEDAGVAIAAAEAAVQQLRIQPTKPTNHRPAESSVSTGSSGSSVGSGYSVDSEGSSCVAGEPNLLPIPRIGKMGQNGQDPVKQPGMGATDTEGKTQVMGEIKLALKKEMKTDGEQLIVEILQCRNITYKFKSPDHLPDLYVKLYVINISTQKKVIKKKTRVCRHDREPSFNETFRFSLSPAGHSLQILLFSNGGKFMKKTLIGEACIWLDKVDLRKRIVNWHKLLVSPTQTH

No constants are given. Whether binding was seen depends on the method and setting. Binding seen in cells or lysates may run through a third protein. Some results given as binding are weak or reduced against the parent protein; the word gives no strength.

Regarding Bassoon (from UniProt O88778 1-3938), the binding result is “binds”.
